Laboratory results published in article PMC5605669.
Results are given in words; binding and its absence hold for the method and conditions named. Some entries that bind do so weakly or less than the wild type.

Key:
[1] = molecular target: APOBEC3G, wild type (human), Q9HC16; assay: AFM imaging; 70 nM A3G incubated 10 min with linearized m13 ssDNA in 10 mM Tris, 2.5 mM NaCl; deposited on APTES coated mica, imaged in liquid; monomers per cluster on ssDNA from cluster volume; both purified; conditions: remark: other sources report otherwise
[2] = molecular target: APOBEC3G, wild type (human), Q9HC16; assay: optical tweezers (single-molecule ssDNA extension); fraction of bound A3G that stays stably bound after washing with buffer, against incubation time (200 to 1000 s) at 50 nM; single exponential fit gives the oligomerization rate on ssDNA at 80 pN; both purified; conditions: remark: other sources report otherwise

B1: APOBEC3G, wild type, Q9HC16 1-384 (enzyme)
chain: MKPHFRNTVERMYRDTFSYNFYNRPILSRRNTVWLCYEVKTKGPSRPPLDAKIFRGQVYSELKYHPEMRFFHWFSKWRKLHRDQEYEVTWYISWSPCTKCTRDMATFLAEDPKVTLTIFVARLYYFWDPDYQEALRSLCQKRDGPRATMKIMNYDEFQHCWSKFVYSQRELFEPWNNLPKYYILLHIMLGEILRHSMDPPTFTFNFNNEPWVRGRHETYLCYEVERMHNDTWVLLNQRRGFLCNQAPHKHGFLEGRHAELCFLDVIPFWKLDLDQDYRVTCFTSWSPCFSCAQEMAKFISKNKHVSLCIFTARIYDDQGRCQEGLRTLAEAGAKISIMTYSEFKHCWDTFVDHQGCPFQPWDGLDEHSQDLSGRLRAILQNQEN
binding [1]: binds
binding [2]: binds
